The source of these data is the supplement of paper PMC8256030.

Where “and” joins values, the source holds several entries; their conditions need not be identical. Equal values may be shown once. The list shows a part of the results. Repeats in this data set agree poorly, so a single value says little.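 HEK293T cells were given each compound shortly before transfection with a reporter in which red mCherry is followed by the SARS-CoV-2 frameshift element and then GFP in the −1 frame, so GFP appears only after frameshifting.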

This test concerns HEK293T. Kind of test: percent viability (nuclei count) relative to control; higher = more viable cells. As to conditions: 10 µM; 24 h.
With `CN1c2c(oc(=O)n(-c3ccccn3)c2=O)-c2ccccc2S1(=O)=O` [droxicam], the percent viability was 231%.

Consider `O=C(c1ccccc1)c1ccc2n1CCC2C(=O)O` (stereo not given) [ketorolac], for which the percent viability was determined as 224%.

Regarding `NC(N)=NC(N)=NCCc1ccccc1`, the percent viability turned out to be 113%.

For `C=C(NC(=O)c1csc(-c2nc3c(cc2O)-c2nc(cs2)C(=O)NC(C(C)O)C(=O)N/C(=C\C)c2nc(cs2)C(=O)NC2CC(O)C(=O)OCc4cccc5[nH]c(c(C)c45)C(=O)SCC(NC(=O)c4csc2n4)c2nc-3cs2)n1)C(N)=O` (stereo not given) [nosiheptide], the percent viability was 178%.

Turning to `COC(=O)CCc1ccc(OCC(O)CNC(C)C)cc1` (stereo not given) [esmolol], the percent viability was determined as 130%.

As to `Nc1nc(=O)[nH]cc1F`, the percent viability worked out at 233%.

As to `CCOC(=O)c1ccc(OCCC2CCN(c3ccc(C)nn3)CC2)cc1` [pirodavir], the percent viability was 130%.

Turning to `COC(=O)c1ccccc1O` [Methyl salicylate], the percent viability came to 324%.

Consider `CC(C)C(=O)Nc1ccc([N+](=O)[O-])c(C(F)(F)F)c1` [flutamide], for which the percent viability is 105% and 128%.

Take `C[C@H]1[C@H](O)O[C@@H]2O[C@@]3(C)CC[C@H]4[C@H](C)CC[C@@H]1[C@@]24OO3`: the percent viability came out at 48.9%.

`C#C[C@]1(OC(C)=O)CC[C@H]2[C@@H]3CCC4=CC(=NO)CC[C@@H]4[C@H]3CC[C@@]21CC` (mixture of isomers) [norgestimate]: the percent viability was found to be 212%.

On to `CO[C@H]1C[C@@H]2CC[C@@H](C)[C@@](O)(O2)C(=O)C(=O)N2CCCC[C@H]2C(=O)O[C@H]([C@H](C)C[C@@H]2CC[C@@H](O)[C@H](OC)C2)CC(=O)[C@H](C)/C=C(\C)[C@@H](O)[C@@H](OC)C(=O)[C@H](C)C[C@H](C)/C=C/C=C/C=C/1C`, for which the percent viability is 122%.

`Cc1cc(N)c2cc(NC(=O)Nc3ccc4nc(C)cc(N)c4c3)ccc2n1` [aminoquinuride]: the percent viability is 424%.

Turning to `N#C[C@@H]1C[C@@H]2C[C@@H]2N1C(=O)[C@@H](N)C12CC3CC(CC(O)(C3)C1)C2`, the percent viability is 130%.

For `C[C@]1(Cn2ccnn2)[C@H](C(=O)O)N2C(=O)C[C@H]2S1(=O)=O` [tazobactam], the percent viability turned out to be 187%.

`N#C/C(=C1/SCC(c2ccccc2Cl)S1)n1ccnc1` (stereo not given) [lanoconazole]: the percent viability was determined as 44.1%.

As for `COCCOC(=O)C1=C(C)NC(C)=C(C(=O)OC(C)C)C1c1cccc([N+](=O)[O-])c1` (stereo not given) [nimodipine], the percent viability was 150% and 302%.

In the case of `O=C(/C=C/C=C/c1ccc2c(c1)OCO2)N1CCCCC1`, the percent viability came to 158%.

Regarding `CC(C)Cc1ccc(CC(=O)O)cc1` [ibufenac], the percent viability came to 189%.

For the compound `CCOc1cc(N)c(Cl)cc1C(=O)NCC1CN(Cc2ccc(F)cc2)CCO1` (stereo not given) [mosapride], the percent viability turned out to be 187%.

On to `CC(=O)CC(c1ccc([N+](=O)[O-])cc1)c1c(O)c2ccccc2oc1=O` (stereo not given), for which the percent viability amounted to 136%.

On to `C[N+](C)(C)CCOP(=O)(O)OC[C@H](O)CO` [choline alfoscerate], for which the percent viability turned out to be 259%.

With `CCCCC[C@H](O)CC[C@@H]1[C@H]2Cc3cccc(OCC(=O)O)c3C[C@H]2C[C@H]1O` [treprostinil], the percent viability is 144%.

On to `CCc1ccc(CCOc2ccc(CC3SC(=O)NC3=O)cc2)nc1` (stereo not given) [pioglitazone], for which the percent viability was 237% and 326%.

With `N[C@@H](C(=O)N[C@@H]1C(=O)N2C(C(=O)O)=C(Cl)CS[C@H]12)c1ccccc1`, the percent viability turned out to be 177%.

Take `Oc1c(I)cc(I)c2cccnc12`: the percent viability is 144%.

On to `COC(=O)C1=C(C)NC(C)=C(C(=O)OCC(C)C)C1c1ccccc1[N+](=O)[O-]` (stereo not given) [nisoldipine], for which the percent viability is 218% and 188%.

As for `COc1ccccc1OCCOCCOCCN1CCCCC1` [guaiapate], the percent viability was 157%.

With `C[Se]CCC(N)C(=O)O` (stereo not given), the percent viability was determined as 331%.

Consider `CCCN(CCC)CCc1cccc2c1CC(=O)N2` [ropinirole], for which the percent viability was 85.3%.

Take `c1ccc([C@H]2CN3CCSC3=N2)cc1` [levamisole]: the percent viability was found to be 211%.

With `COc1ccc(CCNC[C@H](O)c2ccc(O)cc2)cc1OC` [denopamine], the percent viability turned out to be 200%.

`CCCNC(C)C(=O)Nc1ccccc1C` (stereo not given) [prilocaine]: the percent viability was determined as 271%.

On to `O=C(N/N=C/c1ccc([N+](=O)[O-])o1)c1ccc(O)cc1` [nifuroxazide], for which the percent viability is 200%.

As for `CC(CN1c2ccccc2Sc2ccccc21)N(C)C` (stereo not given) [promethazine], the percent viability was 252% and 166%.

As for `NC(=O)N[C@@H](CCC(=O)O)C(=O)O` [Carbaglu], the percent viability turned out to be 138%.

Regarding `CC[C@H]1OC(=O)[C@H](C)[C@@H](O[C@H]2C[C@@](C)(OC)[C@@H](O)[C@H](C)O2)[C@H](C)[C@@H](O[C@@H]2O[C@H](C)C[C@H](N(C)C)[C@H]2O)[C@](C)(O)C[C@@H](C)C(=O)[C@H](C)[C@@H](O)[C@H]1C` [berythromycin], the percent viability came out at 159%.

Consider `CCNC(=O)[C@@H]1CCCN1C(=O)[C@H](CCCNC(=N)N)NC(=O)[C@H](CC(C)C)NC(=O)[C@@H](CC(C)C)NC(=O)[C@H](Cc1ccc(O)cc1)NC(=O)[C@H](CO)NC(=O)[C@H](Cc1c[nH]c2ccccc12)NC(=O)[C@H](Cc1c[nH]cn1)NC(=O)[C@@H]1CCC(=O)N1` [leuprorelin], for which the percent viability was determined as 163%.

On to `Clc1ccccc1CN1CCc2sccc2C1` [Ticlopidine], for which the percent viability turned out to be 282%.

For `OCCN1C[C@H](O)[C@@H](O)[C@H](O)[C@H]1CO` [miglitol], the percent viability is 274%.
